Laboratory results: PubChem BioAssay AID504774 (Drosophila RNAi Screening Center, 2011)
In all, the deposit lists about 23,000 reagents; below is an unselected part of those that have a named target and a result. 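Values are quantile-normalised luminescence on an arbitrary scale; higher means more cells surviving MMS.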 The numbers tell different reagents against one gene apart. Names joined by + are all predicted targets of the reagent. Not all columns of the deposit are shown.

Aim: 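Knock-downs that shift viability of MMS-exposed cells relative to untreated ones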 (primary screen)
System: Drosophila Kc167 cells
Reagents: long dsRNA against Drosophila genes, about 0.25 µg dsRNA per well
Duration: about 6 days: 3 days knock-down, then 3 days with or without MMS
Conditions: methyl methanesulphonate 0.004% (w/v) for 3 days after knock-down
Read-out: 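Viability in wells given MMS, read as ATP luminescence, normalised by quantiles plate by plate and averaged across replicates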
Scale: mean viability with MMS: higher = more surviving cells after MMS

CG30385 gave mean viability with MMS 3.67e6. After knock-down of Ir10a #1 the results were mean viability with MMS 3.46e6. After knock-down of Ir10a #2, the record shows mean viability with MMS 3.53e6. Ir10a #3 scored mean viability with MMS 3.55e6. Depletion of CG14866 resulted in: mean viability with MMS 3.73e6. Against CG34425 #1, the values are mean viability with MMS 3.77e6.

With knock-down of CG34425 #2, the screen gave mean viability with MMS 3.38e6. wts #1 gave mean viability with MMS 2.76e6. With knock-down of wts #2, the record shows mean viability with MMS 3.30e6. For CG15553 the deposit lists mean viability with MMS 3.40e6. With knock-down of Cyp6a8 the results were mean viability with MMS 3.25e6. For knon, the values are mean viability with MMS 3.56e6.

After knock-down of CG1774, the screen gave mean viability with MMS 3.45e6. Against beta3GalTII, the values are mean viability with MMS 3.48e6. byn showed mean viability with MMS 3.89e6. After knock-down of MED1 the results were mean viability with MMS 3.28e6. After knock-down of CG44085 #1, the record shows mean viability with MMS 2.73e6. With knock-down of CG44085 #2, the screen gave mean viability with MMS 3.51e6.

For CG30369 the deposit lists mean viability with MMS 3.69e6. For CG4278 the deposit lists mean viability with MMS 3.56e6. With knock-down of Tsp86D, the record shows mean viability with MMS 3.57e6. After knock-down of CG13982 the results were mean viability with MMS 3.48e6. After knock-down of CadN the results were mean viability with MMS 3.53e6. Against CG31948, the values are mean viability with MMS 3.55e6.

Knock-down of Osi10b came out at: mean viability with MMS 3.48e6. After knock-down of CR12628 + Mgstl #1, the record shows mean viability with MMS 3.57e6. CR12628 + Mgstl #2 showed mean viability with MMS 3.57e6. Mtl showed mean viability with MMS 3.60e6. Against l(1)G0020, the values are mean viability with MMS 3.52e6.

Not a retest: an excerpt of the list.
CG1774 | mean viability with MMS = 3.45e6
beta3GalTII | mean viability with MMS = 3.48e6
byn | mean viability with MMS = 3.89e6
MED1 | mean viability with MMS = 3.28e6
CG44085 #1 | mean viability with MMS = 2.73e6
CG44085 #2 | mean viability with MMS = 3.51e6
CG30369 | mean viability with MMS = 3.69e6

More entries:
Silencing of CG5402 gave: mean viability with MMS 3.54e6. After knock-down of CG4836, the record shows mean viability with MMS 3.59e6. Against COX6AL, the entry reads mean viability with MMS 3.36e6. After knock-down of JTBR, the record shows mean viability with MMS 3.45e6. Depletion of CG3589 resulted in: mean viability with MMS 3.22e6. Against CG33521 #1, the values are mean viability with MMS 3.57e6.

Silencing of CG33521 #2 resulted in: mean viability with MMS 3.68e6. Against CG33521 #3, the entry reads mean viability with MMS 3.63e6. CG34292 showed mean viability with MMS 3.66e6. Knock-down of CG12307 came out at: mean viability with MMS 3.39e6. Knock-down of Fife resulted in: mean viability with MMS 3.22e6. For T3dh + pgc the deposit lists mean viability with MMS 3.67e6.

Against PIG-T the deposit lists mean viability with MMS 3.45e6. Against Est-6, the entry reads mean viability with MMS 3.63e6. CG13002 showed mean viability with MMS 3.44e6. Knock-down of grp + CG31782 (retired record) came out at: mean viability with MMS 3.44e6.
